# Measurements reported in PubChem BioAssay (NCATS).
# The chains behind the UniProt entries cited, without tags or fusion partners. Where a name states a change or a piece, a line headed by the entry shows the natural chain unless it says otherwise.
# UniProt P35557, whole entry, looked up: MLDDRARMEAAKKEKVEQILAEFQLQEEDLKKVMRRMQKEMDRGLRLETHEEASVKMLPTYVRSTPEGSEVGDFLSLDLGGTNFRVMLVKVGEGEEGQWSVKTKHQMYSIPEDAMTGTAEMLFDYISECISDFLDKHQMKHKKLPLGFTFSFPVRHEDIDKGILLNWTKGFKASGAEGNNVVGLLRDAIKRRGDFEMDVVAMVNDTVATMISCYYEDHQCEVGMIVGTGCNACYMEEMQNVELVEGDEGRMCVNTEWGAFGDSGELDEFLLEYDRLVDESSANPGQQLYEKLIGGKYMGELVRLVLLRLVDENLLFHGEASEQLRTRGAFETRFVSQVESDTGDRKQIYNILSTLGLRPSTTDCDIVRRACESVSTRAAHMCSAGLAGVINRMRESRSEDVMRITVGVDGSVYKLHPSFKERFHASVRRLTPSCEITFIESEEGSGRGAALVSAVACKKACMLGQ
# UniProt Q14397: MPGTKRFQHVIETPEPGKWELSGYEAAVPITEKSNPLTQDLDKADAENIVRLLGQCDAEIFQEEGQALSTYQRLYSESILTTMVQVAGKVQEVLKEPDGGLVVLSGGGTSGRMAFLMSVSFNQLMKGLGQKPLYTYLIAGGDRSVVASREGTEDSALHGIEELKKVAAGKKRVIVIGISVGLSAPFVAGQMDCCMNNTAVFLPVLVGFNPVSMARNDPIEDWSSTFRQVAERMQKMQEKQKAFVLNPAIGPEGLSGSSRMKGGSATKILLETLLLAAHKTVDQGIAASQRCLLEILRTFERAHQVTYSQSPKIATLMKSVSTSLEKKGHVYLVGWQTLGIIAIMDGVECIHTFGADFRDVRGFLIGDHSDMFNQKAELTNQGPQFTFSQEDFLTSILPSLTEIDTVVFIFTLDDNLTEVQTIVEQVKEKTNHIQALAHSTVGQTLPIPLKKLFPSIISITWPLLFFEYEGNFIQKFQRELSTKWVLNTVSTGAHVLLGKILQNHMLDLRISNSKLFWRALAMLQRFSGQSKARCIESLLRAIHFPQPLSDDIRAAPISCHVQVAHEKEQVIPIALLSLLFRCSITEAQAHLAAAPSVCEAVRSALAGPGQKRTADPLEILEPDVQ
# UniProt Q03181: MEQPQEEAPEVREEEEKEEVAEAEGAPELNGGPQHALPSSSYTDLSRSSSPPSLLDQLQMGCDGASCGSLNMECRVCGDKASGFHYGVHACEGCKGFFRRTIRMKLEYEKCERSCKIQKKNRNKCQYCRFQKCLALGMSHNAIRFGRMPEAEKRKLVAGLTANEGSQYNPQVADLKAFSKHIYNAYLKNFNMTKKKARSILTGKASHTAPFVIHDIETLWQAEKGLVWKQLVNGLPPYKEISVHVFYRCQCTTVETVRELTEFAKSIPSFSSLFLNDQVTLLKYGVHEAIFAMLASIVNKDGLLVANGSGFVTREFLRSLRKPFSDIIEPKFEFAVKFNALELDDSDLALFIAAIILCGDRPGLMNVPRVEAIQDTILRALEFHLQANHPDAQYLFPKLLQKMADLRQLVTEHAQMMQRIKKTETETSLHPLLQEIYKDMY
# UniProt P37231: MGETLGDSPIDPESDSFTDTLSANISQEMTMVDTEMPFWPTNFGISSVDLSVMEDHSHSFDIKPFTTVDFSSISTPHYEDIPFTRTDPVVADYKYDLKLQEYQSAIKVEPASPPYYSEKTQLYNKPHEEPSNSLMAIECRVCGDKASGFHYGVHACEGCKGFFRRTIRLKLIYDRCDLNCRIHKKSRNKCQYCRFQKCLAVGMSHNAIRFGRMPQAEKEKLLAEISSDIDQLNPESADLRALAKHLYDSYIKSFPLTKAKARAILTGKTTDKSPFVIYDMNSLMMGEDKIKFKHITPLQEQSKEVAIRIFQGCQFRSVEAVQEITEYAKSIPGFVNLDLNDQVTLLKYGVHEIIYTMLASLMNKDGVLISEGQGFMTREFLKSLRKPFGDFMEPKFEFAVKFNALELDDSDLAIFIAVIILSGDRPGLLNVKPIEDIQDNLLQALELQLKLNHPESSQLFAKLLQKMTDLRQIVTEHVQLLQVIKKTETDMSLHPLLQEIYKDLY
# UniProt Q07869: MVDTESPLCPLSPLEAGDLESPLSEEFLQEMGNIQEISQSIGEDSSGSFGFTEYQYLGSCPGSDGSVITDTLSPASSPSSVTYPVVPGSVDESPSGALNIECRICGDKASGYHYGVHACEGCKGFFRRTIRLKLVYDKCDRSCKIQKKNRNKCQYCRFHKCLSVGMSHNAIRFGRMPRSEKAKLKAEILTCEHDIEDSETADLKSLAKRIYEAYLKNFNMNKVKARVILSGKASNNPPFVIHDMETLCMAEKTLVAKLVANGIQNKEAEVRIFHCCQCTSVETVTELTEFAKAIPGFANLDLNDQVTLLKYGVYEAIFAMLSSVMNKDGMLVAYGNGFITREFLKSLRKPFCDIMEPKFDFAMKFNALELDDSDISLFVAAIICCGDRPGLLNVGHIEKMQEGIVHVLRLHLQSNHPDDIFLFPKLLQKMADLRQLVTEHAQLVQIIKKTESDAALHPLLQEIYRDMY
# UniProt P51570: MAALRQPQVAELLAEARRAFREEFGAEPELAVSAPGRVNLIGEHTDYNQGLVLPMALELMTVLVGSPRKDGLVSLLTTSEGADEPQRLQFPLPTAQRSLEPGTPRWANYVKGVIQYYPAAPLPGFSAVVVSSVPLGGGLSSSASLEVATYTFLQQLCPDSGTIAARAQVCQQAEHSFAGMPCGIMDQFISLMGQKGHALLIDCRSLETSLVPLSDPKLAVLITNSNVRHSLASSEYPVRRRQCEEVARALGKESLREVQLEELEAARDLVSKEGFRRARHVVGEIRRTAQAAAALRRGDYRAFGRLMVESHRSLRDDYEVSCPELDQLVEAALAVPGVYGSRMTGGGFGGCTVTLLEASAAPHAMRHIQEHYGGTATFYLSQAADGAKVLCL
# UniProt P11712, whole entry, looked up: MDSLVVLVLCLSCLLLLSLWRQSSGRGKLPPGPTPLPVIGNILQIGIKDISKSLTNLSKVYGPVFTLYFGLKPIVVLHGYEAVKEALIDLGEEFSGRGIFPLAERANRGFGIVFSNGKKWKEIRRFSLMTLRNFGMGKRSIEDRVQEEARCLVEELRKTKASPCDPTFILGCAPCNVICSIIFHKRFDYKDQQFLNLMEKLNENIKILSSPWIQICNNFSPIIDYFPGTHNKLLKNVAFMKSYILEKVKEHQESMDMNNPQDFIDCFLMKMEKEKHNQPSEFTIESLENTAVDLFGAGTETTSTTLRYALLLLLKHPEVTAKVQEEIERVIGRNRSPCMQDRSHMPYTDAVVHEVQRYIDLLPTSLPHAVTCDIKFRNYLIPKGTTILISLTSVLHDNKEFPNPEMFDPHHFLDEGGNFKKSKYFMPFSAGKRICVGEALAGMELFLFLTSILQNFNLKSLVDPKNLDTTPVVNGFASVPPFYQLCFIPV
# Inconclusive means that the source gave no clear call. Such entries were picked first, then a sample of the others. For some assays here: Potencies of inconclusive entries are doubtful fits and often do not repeat. For some assays here: A note “side channel” means that the fit belongs to a control or component signal, not to the main read-out. Activity calls are given as the source filed them. Unless noted, calls follow the shape of the dose curve; as a rule, active = well fitted curve in the direction sought with a large enough effect; inconclusive = small, poorly fitted or top-dose-only effect, or another doubt; inactive = no such curve, though single readings can be large; an effect the other way counts as inactive or inconclusive.
# What was measured:
# [1] = Cell Viability - LYMP1-002 - Assay at 40 hr (AID 994);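 also: 0% = DMSO only and full inhibition = 92 µM tetraoctylammonium bromide; nearly all actives have a fitted effect of over 60% in size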
# In short: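 Concentration-dependent ATP loss after 40 hr treatment at 37 C defined toxicity; AC50 values were obtained by fitting the standard Hill equation.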
# [2] = biological target: Hexokinase-4 (Homo sapiens) + Glucokinase regulatory protein (Homo sapiens) (UniProt P35557+Q14397); assay: qHTS assay for inhibitors of recombinant human GCK-GKRP interaction: Diaphorase-coupled assay (AID 743205)
# In short: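 Resorufin fluorescence (525/590 nm), read each minute over 30 min, reports GCK activity coupled via G6PDH and diaphorase. Reaction: 10 nM GST-GCK, 10 nM FLAG-GKRP, 5 mM glucose, 0.4 mM ATP, 0.15 mM NADP+, 0.1 mM resazurin.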
# DIV17 = assay: qHTS profiling for inhibitors of Plasmodium falciparum proliferation (AID 504749); also: nearly all actives have a fitted effect of over 60% in size; also: potency is read from the fitted curve at half-maximal effect;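 as to activity, negative = inhibition: 0% = DMSO vehicle and full inhibition = artemisinin control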; details: P. falciparum in erythrocytes, SYBR Green DNA, 72 h; activity, negative = inhibition: at 28.7 µM (top of the series)
# In short: (§1)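 In a 72 h erythrocytic culture (37 C, humidified, 5% CO2) at 2.5% hematocrit and 0.3% starting parasitemia, compounds were tested; SYBR Green I in detergent lysis buffer stained parasite DNA overnight.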
# TAB109 = assay: as above; details: P. falciparum in erythrocytes, SYBR Green DNA, 72 h
# In short: as §1
# [3] = biological target: Glucocorticoid receptor (Homo sapiens) (UniProt P04150); assay: qHTS assay for small molecule agonists of glucocorticoid receptor signaling (AID 588532; active = well fitted curve in the direction sought with a large enough effect in the signal ratio, with a control signal flat; inconclusive = small, poorly fitted or top-dose-only effect, or a change in a side signal; inactive = no such curve, though single readings can be large or run the other way; the % refers to the signal ratio; also: potency is read from the fitted curve at half-maximal effect); details: HeLa MMTV-bla, beta-lactamase ratio, agonist, 18 h; activation: active compounds read high, percent of dexamethasone control, DMSO zero
# In short: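 Using MMTV-bla HeLa cells in medium with 1% stripped FBS and 25 mM HEPES, compounds were titrated and incubated overnight-length (18 h). Beta-lactamase cleavage of CCF4 was quantified by dual-emission fluorescence.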
# [4] = biological target: Peroxisome proliferator-activated receptor delta (Homo sapiens) (UniProt Q03181); assay: qHTS assay for small molecule agonists of peroxisome proliferator-activated receptor delta signaling (AID 588534; calls by dose curve; also: potency is read from the fitted curve at half-maximal effect); details: HEK293T PPARdelta-UAS-bla, beta-lactamase ratio, 18 h; activation: at 76.7 µM (top of the series)
# In short: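 EC50 and efficacy values derive from Hill fits of a concentration series in a beta-lactamase reporter cell assay. Exposure is 18 hrs at 37 C, with CCF4 fluorescence as the readout.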
# [5] = biological target: Peroxisome proliferator-activated receptor delta (Homo sapiens) (UniProt Q03181); assay: qHTS assay for small molecule antagonists of peroxisome proliferator-activated receptor delta signaling (AID 588535; active = well fitted inhibition curve with a large enough effect in the signal ratio, with a control signal flat, not every such curve was filed as active; inconclusive = small, poorly fitted or top-dose-only effect, or effect the other way, or a change in a side signal; inactive = no such curve, though single readings can be large or run the other way; the % refers to the signal ratio; also: potency is read from the fitted curve at half-maximal effect); details: HEK293T PPARd-UAS-bla, beta-lactamase FRET ratio, 18 h; activity change, negative = inhibition: at 76.7 µM (top of the series)
# In short: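 Antagonist-mode qHTS using GeneBLAzer PPAR-delta-UAS-bla HEK293T cells; compound exposure 18 hrs at 37 C over a titration. Ratiometric CCF4 fluorescence at 460/530 nm; concentration-response points fitted to the Hill equation.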
# [6] = biological target: Peroxisome proliferator-activated receptor gamma (Homo sapiens) (UniProt P37231); assay: qHTS assay for small molecule agonists of peroxisome proliferator-activated receptor gamma signaling (AID 588536; active = well fitted curve in the direction sought with a large enough effect in the signal ratio, with a control signal flat, not every such curve was filed as active; inconclusive = small, poorly fitted or top-dose-only effect, or effect the other way, or a change in a side signal; inactive = no such curve, though single readings can be large or run the other way; the % refers to the signal ratio; also: potency is read from the fitted curve at half-maximal effect); details: HEK293 PPARg-UAS-bla, beta-lactamase ratio, 16 h; activation: at 76.7 µM (top of the series), percent of rosiglitazone response, DMSO as zero
# In short: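 Compound treatment: 16 h, 37 C, HEK293 GeneBLAzer cells. Detection: CCF4, 2 h RT. Values: Hill-fit EC50, efficacy as % of 2 uM rosiglitazone.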
# [7] = biological target: Vitamin D3 receptor (Homo sapiens) (UniProt P11473); assay: qHTS assay for small molecule antagonists of vitamin D receptor signaling (AID 588541; calls by dose curve;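 also: receptor activated by calcitriol during compound treatment; % is scaled to controls: 0 for no effect and ±100 for the full control effect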); details: HEK293T VDR-UAS-bla, beta-lactamase ratio, antagonist mode; activity change, negative = inhibition: at 76.7 µM (top of the series) unless noted
# [8] = biological target: Vitamin D3 receptor (Homo sapiens) (UniProt P11473); assay: qHTS assay for small molecule agonists of vitamin D receptor signaling (AID 588543; calls by dose curve; also: potency is read from the fitted curve at half-maximal effect); details: HEK293T VDR-UAS-bla, beta-lactamase ratio, 16 h; activation: at 76.8 µM (top of the series)
# In short: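 β-lactamase reporter, VDR-UAS-bla HEK293T, agonist mode. Cells plated 5 h at 37 °C, compound titration 16 h at 37 °C, CCF4 dye 2 h RT, ratio 460/530 nm. Hill fit → EC50, efficacy vs 50 nM 1α,25-(OH)2D3.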
# [9] = biological target: Peroxisome proliferator-activated receptor alpha (Homo sapiens) (UniProt Q07869); assay: qHTS assay for small molecule agonists of the peroxisome proliferator-activated receptor alpha (PPARalpha) signaling pathway (AID 651778); details: PathHunter PPARalpha complementation, chemiluminescence, 6 h; also: potency is read from the fitted curve at half-maximal effect
# In short: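 Chemiluminescence from complemented enzyme reported PPARalpha activation in cells after 6 hr of compound treatment at 37 C. The detection reagent was incubated for 60 min at room temperature, and compounds were scored as agonists.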
# ECU = assay: qHTS profiling for inhibitors of Plasmodium falciparum proliferation (AID 504749); also: nearly all actives have a fitted effect of over 60% in size; also: potency is read from the fitted curve at half-maximal effect;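 as to activity, negative = inhibition: 0% = DMSO vehicle and full inhibition = artemisinin control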; details: P. falciparum in erythrocytes, SYBR Green DNA, 72 h
# In short: as §1
# [10] = biological target: Beta-2 adrenergic receptor (Homo sapiens) (UniProt P07550); assay: qHTS validation assay of beta-arrestin-biased ligands of beta2-adrenergic receptor (AID 485366); also: 0% is about no effect
# In short: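 Agonist activity is measured as luciferase luminescence downstream of beta-arrestin recruitment to recombinant beta2-AR in Tango cells. Exposure lasts 18 hr at 37 degrees C, and curves are categorized by r2, response size and activity.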
# [11] = biological target: Galactokinase (Homo sapiens) (UniProt P51570); assay: qHTS Validation Assay for Inhibitors of Human Galactokinase (GALK) (AID 493189); also: 0% is about no effect
# In short: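 Luminescence from leftover ATP (Kinase-Glo Plus, 10 min) served as read-out after a 1 h room-temperature reaction of 5 nM GALK, 100 uM galactose and 35 uM ATP at pH8.0.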
# [12] = biological target: Cytochrome P450 2C9 (Homo sapiens) (UniProt P11712); assay: Cytochrome P450 family 2 subfamily C member 9 (CYP2C9) small molecule antagonists: luciferase biochemical (cell-free) qHTS assay (AID 1645842; active = well fitted curve in the direction sought with a large enough effect in the repeat runs; inconclusive = weak or mixed curves; inactive = no such curve, though single readings can be large; an effect the other way counts as inactive or inconclusive; also: % is scaled to controls: 0 for no effect and ±100 for the full control effect; nearly all actives have a fitted effect of over 55% in size)
# In short: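 P450-Glo CYP2C9 system: proluciferin substrate with enzyme in mix containing 0.4% BSA, 10 min at room temperature, then NADPH regeneration solution added and incubated 1 h at 37C. Detection reagent stopped reaction; luminescence read after 20 min as RLU.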
# [13] = qHTS Assay for Identification of Small Molecule Agonists for NFkB Signaling Pathway (AID 928; calls by dose curve); details: NFkB beta-lactamase reporter cells, blue/green ratio
# In short: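 Activators were sought with TNF alpha co-added at 10 pM final (its EC50) to beta-lactamase reporter cells. Cells were plated in OPTI MEM with 0.5% FBS and exposed for 5 hrs at 37 C. The FRET substrate ratio was read at 460 and 530 nm.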
# [14] = MultiTox-Fluor Cytotoxicity Assay - LYMP1-001 - Live Cells (AID 947); also: potency is read from the fitted curve at half-maximal effect
# [15] = Cell Viability - LYMP2-009 (AID 968);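 also: cells exposed to compound for 24 h at 37 °C; 0% = DMSO alone and the full-kill end = tetraoctylammonium bromide at 92 µM; nearly all actives have a fitted effect of over 55% in size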
# [16] = Cell Viability - LYMP2-015 (AID 971);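 also: potency is read from the fitted curve at half-maximal effect; cells exposed to compound for 24 h; nearly all actives have a fitted effect of over 55% in size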
# In short: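 AC50 values reflect Hill-model fits of ATP-based luminescence (CellTiter-Glo) from a human lymphoblastoid line, 2500 cells/well, treated 24 hr at 37 C.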
# [17] = Cell Viability - LYMP2-010 (AID 981);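 also: potency is read from the fitted curve at half-maximal effect; cells exposed to compound for 24 hours at 37 °C; nearly all actives have a fitted effect of over 55% in size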
# In short: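 This 24 hr viability screen uses LYMP2-010 lymphoblastoid cells, quantifies ATP via luciferase luminescence, and derives AC50 from Hill fits of qHTS concentration-response data.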
structure (smiles),measurement,setting,value
CC(=O)C(C)=O,Potency,[1],inactive
C=CCNc1ncnc2ccc(Br)cc12,Potency,[2],inactive
CC1OC1P(=O)(O)O (stereo not given),Potency,DIV17,inactive
same,Potency,TAB109,"inconclusive: 3.55 µM [inhibitor, single point]"
CCCCCCCCCCCCCCSCC(=O)O,Potency,[3],"inconclusive: 50.1 µM [side channel, rising, single point]"
same,Potency,[4],"inconclusive: 50.1 µM [activator, partial curve, poor fit]"
same,Potency,[5],"inconclusive: 44.7 µM [fluorescent, side channel, single point]"
same,Potency,[6],active: 28.2 µM
same,"activity change, negative = inhibition",[7],inconclusive: 11.5%
same,Potency,[8],"inconclusive: 15.8 µM [side channel, rising, full curve, poor fit]"
same,Potency,[9],active: 10 µM
C[N+]1(CCCCC[N+]2(C)CCCC2)CCCC1,Potency,ECU,inactive
CCN(CC)CCCCCCCCOC(=O)c1cc(OC)c(OC)c(OC)c1,Potency,[10],inactive
C[C@@H](NCCc1ccc(O)cc1)[C@@H](O)c1ccc(O)cc1,Potency,[11],inactive
CC(C)NC[C@H](O)COc1cccc2ccccc12,Potency,[12],inactive
CC[C@H](NC(=O)c1c(C)c(-c2ccccc2)nc2ccccc12)c1ccccc1,Potency,[13],"inconclusive: 12.6 µM [inhibitor, partial curve]"
CN(C)CCC(c1ccc(Cl)cc1)c1ccccn1 (stereo not given),Potency,[14],"inconclusive: 5.01 µM [cytotoxic, full curve, poor fit]"
same,Potency,[15],inactive
same,Potency,[16],"inconclusive: 50.1 µM [cytotoxic, partial curve, poor fit]"
same,Potency,[17],"inconclusive: 63.1 µM [cytotoxic, partial curve, poor fit]"

# Retrieved one by one from above:
structure (smiles),measurement,setting,value
C=CCNc1ncnc2ccc(Br)cc12,Potency,[2],inactive
CCCCCCCCCCCCCCSCC(=O)O,Potency,[4],"inconclusive: 50.1 µM [activator, partial curve, poor fit]"
